This assay has as its target T1, USP1 (UniProt O94782).
T1 sequence: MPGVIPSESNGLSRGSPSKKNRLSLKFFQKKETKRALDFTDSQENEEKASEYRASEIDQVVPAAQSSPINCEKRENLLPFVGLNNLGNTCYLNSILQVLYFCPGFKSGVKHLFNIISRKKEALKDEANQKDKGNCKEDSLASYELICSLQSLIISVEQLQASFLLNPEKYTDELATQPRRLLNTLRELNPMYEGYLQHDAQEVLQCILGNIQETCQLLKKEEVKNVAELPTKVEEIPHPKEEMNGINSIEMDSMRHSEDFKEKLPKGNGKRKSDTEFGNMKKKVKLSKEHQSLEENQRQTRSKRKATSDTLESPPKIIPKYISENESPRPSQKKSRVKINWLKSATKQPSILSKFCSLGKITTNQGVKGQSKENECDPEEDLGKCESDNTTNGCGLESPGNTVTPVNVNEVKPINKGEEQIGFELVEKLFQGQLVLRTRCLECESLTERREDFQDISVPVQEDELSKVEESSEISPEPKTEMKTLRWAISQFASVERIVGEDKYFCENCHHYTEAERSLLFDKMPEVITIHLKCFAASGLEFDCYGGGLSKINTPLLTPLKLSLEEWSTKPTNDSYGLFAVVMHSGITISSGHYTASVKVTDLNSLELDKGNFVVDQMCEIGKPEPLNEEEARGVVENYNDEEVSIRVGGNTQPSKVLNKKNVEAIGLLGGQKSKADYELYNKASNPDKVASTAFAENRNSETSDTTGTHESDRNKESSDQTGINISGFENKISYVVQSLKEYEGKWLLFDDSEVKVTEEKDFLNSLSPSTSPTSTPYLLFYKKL
The experiment in a line: co-purification (His affinity, then Strep affinity, SEC); coexpressed in Sf9 cells; His-affinity column, then Strep-affinity column, then Superdex 200; 50 mM TRIS pH 8, 150 mM NaCl, 2 mM TCEP.

Amino acid sequences for entries named in this document (tags omitted).
UniProt Q8TAF3: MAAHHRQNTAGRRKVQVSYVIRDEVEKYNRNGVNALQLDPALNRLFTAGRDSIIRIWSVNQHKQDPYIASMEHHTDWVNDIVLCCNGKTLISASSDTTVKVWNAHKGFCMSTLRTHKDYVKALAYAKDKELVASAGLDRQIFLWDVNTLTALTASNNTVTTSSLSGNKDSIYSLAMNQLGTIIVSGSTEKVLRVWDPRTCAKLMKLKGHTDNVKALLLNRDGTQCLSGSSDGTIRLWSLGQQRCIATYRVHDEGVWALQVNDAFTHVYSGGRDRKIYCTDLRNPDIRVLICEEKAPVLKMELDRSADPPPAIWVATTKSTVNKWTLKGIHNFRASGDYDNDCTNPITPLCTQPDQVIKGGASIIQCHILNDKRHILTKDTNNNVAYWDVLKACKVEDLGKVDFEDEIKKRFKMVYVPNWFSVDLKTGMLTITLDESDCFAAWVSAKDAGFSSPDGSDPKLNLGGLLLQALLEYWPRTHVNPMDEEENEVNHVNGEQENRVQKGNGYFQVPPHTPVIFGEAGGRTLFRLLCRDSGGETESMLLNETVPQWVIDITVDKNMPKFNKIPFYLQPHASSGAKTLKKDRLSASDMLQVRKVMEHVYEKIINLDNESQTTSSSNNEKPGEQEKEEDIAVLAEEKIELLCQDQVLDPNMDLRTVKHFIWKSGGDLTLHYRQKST

This is an account of results in article PMC5768779.

These are yes or no findings as the source states them, for the method shown. Some entries that bind do so weakly or less than the wild type.

In the case of UAF1 (from UniProt Q8TAF3 1-677), the binding result is “binds”.
